# Measurements as given in PubChem BioAssay AID2685 (National Center for Advancing Translational Sciences (NCATS), 2010).
# The list shows a part of the results. The main result of the screen is listed elsewhere. These columns were measured beside it and carry no call. The list favours compounds with an active or inconclusive main result. The note in brackets gives the kind of curve behind each potency; many fits are weak.
# Assay: qHTS Assay for Lipid Storage Modulators in Drosophila S3 Cells;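 on cell number change: cells counted by Cell Tracker Red CMTPX staining in the red channel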
# Settings: BODIPY lipid droplet fluorescence, 18-24 h; for cell number change: measured here: cell count max response, cells fed with added oleic acid
# Procedure, shortened: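 Drosophila S3 cells loaded with oleic acid (400 uM, as added) and compounds at several concentrations; lipid droplets imaged by 488-nm laser-scanning cytometry, 500–530 nm intensity and object ratio to cell channel. Percent activity normalized to 20 uM Triacsin C.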
# [1] = measured here: lipid fluorescence (Fed channel) AC50, cells fed with added oleic acid
# [2] = measured here: cell number channel AC50, cells fed with added oleic acid
SMILES,cell number change [%],AC50 [1],AC50 [2]
COc1cc(/C=N/N(C)c2ccccc2)cc(Cl)c1O,-21.6,,
O=C(c1ccc(-n2nc(C(F)(F)F)c3c2CCCC3)cc1)N1CCOCC1,5.43,"0.731 µM [rising, full curve]",
Cc1cccc(NS(=O)(=O)c2nnc(NC(=O)c3ccc(Cl)cc3)s2)c1,-4.79,"0.00517 µM [falling, full curve, poor fit]",
CCOC(=O)c1c(C)[nH]c(C(=O)OCC(=O)NC2(C#N)CCCCC2)c1C,,"0.00411 µM [falling, full curve, poor fit]",
Cc1c(Cl)cccc1NC(=O)Nc1ccc(C(=O)N2CCCC2)cc1,14.6,,"0.058 µM [rising, full curve, poor fit]"
Cc1ccccc1NC(=O)Nc1ccc2c(c1)CCC2,13.9,"29.1 µM [rising, single point]",
Cc1ccsc1C(=O)NCCc1ccco1,18.1,"1.03 µM [rising, partial curve]",
O=S(=O)(c1ccc2ccccc2c1)N1CCN(S(=O)(=O)N2CCCCC2)CC1,-14.9,"1.03 µM [falling, full curve]",
CNC(=S)NNC(=O)c1ccc2c(c1)OCO2,126,"20.6 µM [rising, partial curve]","29.1 µM [rising, partial curve]"
CCc1ccc2c(c1)/C(=N/N(C)C(=S)NC)C(=O)N2,-34.9,"0.461 µM [falling, full curve]","0.0184 µM [falling, full curve]"
Cc1ccc(S(=O)(=O)N2CCCC(C(=O)NC3CC3)C2)cc1 (stereo unspecified),7.14,"29.1 µM [rising, single point]",
Cc1ccc(/C=N/NC(=O)CSc2nc3ccccc3c(=O)n2-c2ccccc2C)s1,-23.5,"0.651 µM [rising, partial curve]","3.26 µM [falling, full curve, poor fit]"
O=C(N/N=C/c1cccnc1)c1cc(O)c(O)c(O)c1,-2.01,"6.51 µM [rising, single point]",
N/C(=N\OC(=O)c1cccc([N+](=O)[O-])c1)c1ccccn1,33.6,,"16.4 µM [rising, partial curve, poor fit]"
N#Cc1ccccc1OCC(=O)OCC(=O)NC1CCCCC1,-0.44,"0.651 µM [rising, full curve, poor fit]",
CCCCCc1ccc(-c2cn(Cc3ccc(C(=O)c4ccccc4)cc3)nn2)cc1,16.2,"5.8 µM [falling, full curve]",
CCc1ccc(C(=O)Nc2cccnc2Oc2ccc(Cl)cc2)cc1,19.3,"7.31 µM [rising, partial curve, poor fit]",
CCN(c1ccccc1)S(=O)(=O)c1cc2c(cc1C)N(C)CCO2,11.5,"20.6 µM [rising, partial curve, poor fit]",
CNC(=O)CN(c1ccc(C23CC4CC(CC(C4)C2)C3)cc1)S(C)(=O)=O,-23.7,"0.291 µM [falling, full curve, poor fit]","0.259 µM [falling, full curve, poor fit]"

# Already shown: an excerpt of the list.
SMILES,cell number change [%],AC50 [1],AC50 [2]
Cc1ccc(S(=O)(=O)N2CCCC(C(=O)NC3CC3)C2)cc1 (stereo unspecified),7.14,"29.1 µM [rising, single point]",
Cc1ccc(/C=N/NC(=O)CSc2nc3ccccc3c(=O)n2-c2ccccc2C)s1,-23.5,"0.651 µM [rising, partial curve]","3.26 µM [falling, full curve, poor fit]"

# Carrying on.

SMILES,cell number change [%],AC50 [1],AC50 [2]
CCCCn1nc(C(=O)N2CCN(S(=O)(=O)c3ccccc3)CC2)c2ccccc2c1=O,76,,"6.51 µM [rising, full curve]"
NNC(=O)CN1CCN(c2ncc(C(F)(F)F)cc2Cl)CC1,19,"2.06 µM [falling, partial curve]","1.64 µM [falling, partial curve]"
COc1cc2c(cc1OC)C(c1cccc([N+](=O)[O-])c1)N(C(=O)c1ccccc1C(=O)O)CC2 (stereo unspecified),4.4,,
N=c1ccn(Cc2ccc([N+](=O)[O-])cc2)cc1,-3.39,"3.26 µM [rising, single point]",
CCCCn1c(N)c(N(CC(C)C)C(=O)CCCc2nc3ccccc3c(=O)[nH]2)c(=O)[nH]c1=O,-14,,"1.16 µM [falling, full curve, poor fit]"
CCOC(=O)c1ccc(-c2n[nH]c(=O)c3ccccc23)cc1,19.3,"0.82 µM [rising, full curve]","0.411 µM [rising, full curve]"
CC(Sc1nnc(-c2ccccc2Br)o1)C(=O)N1CCOCC1 (stereo unspecified),52,,"29.1 µM [rising, single point]"
O=C(NCC1CCCCC1)c1cc([N+](=O)[O-])ccc1N1CCOCC1,-34.7,"29.1 µM [falling, partial curve, poor fit]",
Oc1ccc(-c2nc(-c3ccc(F)cc3)c(-c3ccncc3)[nH]2)cc1,15.5,"0.184 µM [rising, full curve, poor fit]","0.164 µM [rising, full curve, poor fit]"
O=C(NCC(=O)N1CCN(c2ccccc2F)CC1)c1ccco1,38.7,"20.6 µM [rising, partial curve]","29.1 µM [rising, single point]"
CCOC(=O)c1ccc(NC(=O)CN2C(=O)C(=O)N(CC(C)C)C2=O)cc1,5.81,,
CC1CCCC(C)N1CC(O)COc1ccc(Cl)cc1 (stereo unspecified),-18,,"0.731 µM [falling, full curve, poor fit]"
COc1ccc(S(=O)(=O)Nc2ccc(S(=O)(=O)N3CCCCC3)cc2)cc1,-30.5,,"11.6 µM [falling, partial curve, poor fit]"
COc1ccc(N2CCN(C(=O)CCNS(=O)(=O)c3ccc(C)cc3)CC2)cc1,-14.4,"1.64 µM [falling, partial curve]",
COc1ccc(NC(=O)Cn2c(=O)oc3ccccc32)cc1,38.9,"23.1 µM [rising, single point]",
Cc1ccc(NC(=O)CN(C)C(=O)COC(=O)c2ccc(Cl)cc2O)cc1,-44.1,,"29.1 µM [falling, single point]"
Cc1ccc(S(=O)(=O)NCCC(=O)NC2CCCC2)cc1,-33.7,"29.1 µM [falling, single point]","29.1 µM [falling, single point]"
O=C1CC(c2cc(F)ccc2F)c2cc3c(cc2N1)CCC3 (stereo unspecified),-40.7,"25.9 µM [falling, single point]","16.4 µM [falling, single point]"
CSCCC(NC(=O)COc1ccccc1)C(=O)N1CCN(c2ccccc2O)CC1 (stereo unspecified),38.1,,"0.184 µM [rising, full curve]"

SMILES,cell number change [%],AC50 [1],AC50 [2]
CCCc1nnc(NC(=O)CCC(=O)N2CCN(Cc3ccccc3)CC2)s1,-16.8,"29.1 µM [rising, single point]",
Clc1ccc(Cn2nnc(-c3ccccc3)n2)cc1,-44.3,"16.4 µM [falling, partial curve]","16.4 µM [falling, partial curve, poor fit]"
O=C(COC(=O)c1cc(Cl)ccc1[N+](=O)[O-])NCc1ccc(Cl)cc1Cl,16.5,"29.1 µM [falling, single point]",
CNc1ccccc1-c1nc2ccccc2n(C)c1=O,5.64,"4.11 µM [rising, partial curve]",
O=S(=O)(Nc1cccc(-c2cn3c(n2)SCC3)c1)c1ccccc1F,6.07,"2.31 µM [rising, partial curve, poor fit]",
O=C1CC(N2CCN(Cc3ccccc3)CC2)C(=O)N1CCc1ccccc1 (stereo unspecified),20.6,"0.731 µM [falling, full curve]",
Cc1ccc(S(=O)(=O)N(CC(O)CN2CCCC2)c2ccccc2)cc1 (stereo unspecified),-62.1,"0.651 µM [falling, full curve, poor fit]","16.4 µM [falling, single point]"
COc1ccc(OC)c(S(=O)(=O)N2CCC(C(=O)NC3CCCC3)CC2)c1,-5.26,,
CCOC(=O)CSc1nc2sc(C(=O)O)c(C)c2c(=O)[nH]1,-101,"29.1 µM [falling, single point]","5.17 µM [falling, full curve]"
Cc1ccc(-n2nc3c(c2NC(=O)/C=C\c2ccc4c(c2)OCO4)CSC3)c(C)c1,11.5,"29.1 µM [rising, single point]",
COc1cccc(C(=O)NCCS(=O)(=O)NCc2ccco2)c1,26.7,"6.51 µM [falling, single point]",
Cc1nn(-c2ccccc2)c(C)c1NC(=O)COC(=O)c1ccc(Cl)c(N)c1,,"6.51 µM [rising, single point]",
COc1ccccc1N(CC(=O)NCc1ccccc1)C(=O)CCC(=O)Nc1nccs1,7.56,"29.1 µM [falling, single point]",
CCCCC[n+]1cccc2c3ccccc3ccc21,-59.4,"20.6 µM [falling, single point]","16.4 µM [falling, single point]"
O=C(Cn1c(=O)sc2ccccc21)Nc1nc2c(s1)CCCC2,-23.9,"3.66 µM [rising, partial curve, poor fit]",
Cc1cccc(NC(=S)N(C)Cc2cn(C)c3ccccc23)c1,35.3,"0.92 µM [rising, full curve, poor fit]","5.17 µM [rising, partial curve]"
S=C(Nc1ccc(Br)cc1)N1CCCC1,13,,"3.66 µM [falling, single point]"
O=C(Cc1cccs1)NCCSc1c(-c2ccc(Cl)cc2)[nH]c2ccccc12,-14.2,"0.116 µM [falling, full curve, poor fit]",

# Just AC50 [2] and cell number change [%], for five of the compounds above:
SMILES | AC50 [2] | cell number change [%]
O=C(COC(=O)c1cc(Cl)ccc1[N+](=O)[O-])NCc1ccc(Cl)cc1Cl |  | 16.5
Cc1ccc(-n2nc3c(c2NC(=O)/C=C\c2ccc4c(c2)OCO4)CSC3)c(C)c1 |  | 11.5
COc1cccc(C(=O)NCCS(=O)(=O)NCc2ccco2)c1 |  | 26.7
CCCCC[n+]1cccc2c3ccccc3ccc21 | 16.4 µM [falling, single point] | -59.4
O=C(Cc1cccs1)NCCSc1c(-c2ccc(Cl)cc2)[nH]c2ccccc12 |  | -14.2
